The values that follow come from PMC5444859.

Results are given in words; binding and its absence hold for the method and conditions named.

The experiment deals with CASV L-Cterm deltaC (L-Cterm lacking the C-terminal 14 residues) (California Academy of Sciences virus (CASV)) (UniProt J7HBG8). Briefly: SAXS; both purified.

On to “CASV L-Cterm deltaC (L-Cterm lacking the C-terminal 14 residues) (from UniProt J7HBG8 1721-2032) (domain or fragment)”, for which the binding entry is on record as “no binding”.
